Measured values taken from US20060154919A1, “Combination of a glycine transporter (GLYT1) inhibitor and an antipsychotic for the treatment of symptoms of schizophrenia as well as its preparation and use thereof” (priority 2004, published 2006).
Some results were stated once for a whole list of compounds, not compound by compound.

Test system: extracellular glycine in the striatum
Experiment: Microdialysis: extracellular glycine in the rat striatum
Format: in vivo
Settings: risperidone alone, at the dose examined in the combination (1.0 mg/kg)
Protocol: Compounds (as a Na salt) were stored, dissolved, and administered according to detailed instructions accompanying each compound. Compounds were dissolved in a solvent consisting of 10% BCD (beta cyclodextrin) and administered subcutaneously.
Male Sprague Dawley rats weighing 275-325 g at the start of the experiment were individually housed in a temperature-controlled colony room with a 12-h light/dark cycle. Food and water was available ad libitum throughout the experiment. The housing conditions and care of the animals were in accordance with the “Guide for the Care and Use of Laboratory Animals” (Institute of Laboratory Animal Resources on Life Sciences, National Research Council, 1996).
Guide cannula were stored in 95% ETOH prior to surgery, whereas surgical tools underwent heat sterilization (250 °C) immediately before each surgery. […] After adequate anesthesia had been determined (using toe and tail pinch procedures), rats were placed into a stereotaxic instrument. […] Following surgery, body temperature was maintained using a heating pad and the rats were monitored until fully conscious. Rats were then individually housed and assessed daily by monitoring general activity, body weight, and feces. Rats were monitored for signs of an infection and cefazolin (100 mg/kg; intramuscular) was available as needed. […]

Cc1nc2n(c(=O)c1CCN1CCC(c3noc4cc(F)ccc34)CC1)CCCC2 [risperidone, 3-[2-[4-(6-fluoro-1,2-benzisoxazol-3-yl)piperidino]ethyl]-2-methyl-6,7,8,9-tetrahydro-4H-pyrido-[1,2-a]pyrimidin-4-one, reference compound]
elevation in extracellular glycine: 2-3 fold
